This note sets out measurements from the supplement of paper PMC4862054.

What all share (experiment): normalised response (% of control), CellTox Green; higher = less cell death (100 = DMSO, 0 = benzethonium chloride kill control)
What all share (conditions): incubation time: 72 h

Assay [1] deals with MDA-MB-468. Here is the method: (§1)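 DSRT, 72 h incubation, CellTox Green / CellTiter-Glo readout. Signal is normalised to DMSO and benzethonium chloride controls. Value is the normalised response at the lowest tested concentration.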
Assay [2] concerns HDQ-P1. Here is the method: as §1
For assay [3], the system named is CAL-120. Here is the method: as §1
For assay [4], the system named is HCC1599. Here is the method: as §1
Assay [5] concerns Hs578T. The procedure:
as §1

In assay [6] the test system is CAL-148. Here is the method:
as §1

For assay [7], the system named is MDA-MB-231. The procedure: as §1
For assay [8], the system named is MDA-MB-453. Here is the method:
as §1

Assay [9] concerns CAL-85-1. The procedure:
as §1

The subject of assay [10] is DU-4475. The procedure:
as §1

Assay [11] concerns CAL-51. Here is the method: as §1
For assay [12], the system named is HCC1143. The procedure:
as §1

Assay [13] concerns BT-474. Here is the method:
as §1

In assay [14] the test system is BT-549. Here is the method:
as §1

In assay [15] the test system is MFM-223. The procedure:
as §1

Assay [16] has as its system HCC1937. The procedure: as §1
Assay [17] relates to MDA-MB-436. The procedure: as §1
Assay [18] deals with MCF-10A. The procedure:
as §1

Most values lie at the level of the controls, where differences are scatter. *1 amine or outer side, *2 acyl side, *3 side chain or, on linkers, in order; H or OH if unused. Where a SMILES comes first, the peptide text is derived from it. Bridges are numbered along the chain shown (N, C = ends). Roman numbers before positions name the chains, in order. [ ]: non-standard residue; d: D form. Actinocin(9to1) = Cc1c2oc3c(C)ccc(C(=O)[*:1])c3nc-2c(C(=O)[*:2])c(N)c1=O; NMeV = CN[C@H](C(=O)O)C(C)C; Sar = CNCC(=O)O

Take `CN[C@@H](C)C(=O)N[C@H]1CN(C(=O)CC(C)C)CC[C@H]2CC[C@@H](C(=O)NC(c3ccccc3)c3ccccc3)N2C1=O` [AT-406] (1 nM): the normalised response came to 98.5% in assay [1]; 71.2% in assay [2]; 104% in [3]; 112% in [4]; 101% in assay [5]; 94.9% in [6]. Moreover, the normalised response in [7] was 115%; in assay [8] it was 103%; in [9], 97.9%; in assay [10] it was 106%; in assay [11], 123%; in [12] it was 124%. Also, the normalised response in [13] turned out to be 99.6%; in [14], 97.1%; in assay [15] it was 99.1%; in [16], 81.1%.

For `COc1cc(OC2CCN(C)CC2)ccc1Nc1ncc2c(n1)n(C1CCCC1)c(=O)n2C` [AZ 3146] (1 nM), the normalised response in assay [1] turned out to be 64.4%; in [2] it was 94.5%; in assay [3], 97.8%; in assay [4], 93%; in assay [5], 100%; in assay [17], 94.7%. Moreover, the normalised response in assay [6] is 99.5%; in [7] it was 105%; in assay [8], 89.3%; in [9] it was 104%; in assay [10], 97.7%; in assay [11], 106%. Further, the normalised response was found to be 98.5% in assay [12], 96.5% in [13], 102% in assay [14] and 97.9% in [15].

With `Nc1cc(C(F)(F)F)c(-c2cc(N3CCOCC3)nc(N3CCOCC3)n2)cn1` [Buparlisib] (1 nM), the normalised response in assay [2] turned out to be 97.3%; in assay [3], 96.2%; in [4], 97.3%; in assay [5], 107%; in assay [17], 84.7%; in assay [6] it was 92.2%. The normalised response stood at 99.5% in [7]; 91.3% in [8]; 106% in [9]; 97.9% in assay [10]; 112% in [11]; 90.3% in [12]. Further, the normalised response in assay [13] worked out at 100%; in assay [14] it was 67%; in assay [15] it was 86.2%; in [16] it was 63.7%.

As to `Cc1c2oc3c(C)ccc(C(=O)N[C@@H]4C(=O)N[C@H](C(C)C)C(=O)N5CCC[C@H]5C(=O)N(C)CC(=O)N(C)[C@@H](C(C)C)C(=O)O[C@@H]4C)c3nc-2c(C(=O)N[C@@H]2C(=O)N[C@H](C(C)C)C(=O)N3CCC[C@H]3C(=O)N(C)CC(=O)N(C)[C@@H](C(C)C)C(=O)O[C@@H]2C)c(N)c1=O` [Dactinomycin] (0.1 nM) (I: T[dV]P[Sar][NMeV] / II: T[dV]P[Sar][NMeV]; ester I:1-I:C, II:1-II:C; linker I:N-II:N via Actinocin(9to1)), the normalised response in [2] was found to be 84.3%; in assay [3], 103%; in assay [4], 111%; in assay [5], 99.5%; in [17] it was 84.4%; in assay [6], 101%. Further, the normalised response came out at 108% in assay [7]; 100% in [18]; 106% in assay [8]; 98.6% in [9]; 106% in [10]; 101% in assay [11]. In addition, the normalised response came to 73.1% in assay [12]; 98% in assay [13]; 94.1% in [14]; 103% in [15]; 79% in assay [16].

`CC(C)n1nc(-c2ccc3oc(N)nc3c2)c2c(N)ncnc21` [INK128] (0.1 nM): the normalised response in [2] stood at 84.2%; in assay [3], 98.3%; in assay [4], 93.6%; in [5], 107%; in assay [17], 96.7%; in [7], 80.8%. The normalised response in assay [8] stood at 79.8%; in [9], 102%; in assay [10] it was 97.8%; in [11], 117%; in assay [12], 72.7%; in [13] it was 97.9%. The normalised response in assay [14] was found to be 95.7%; in [15], 102%; in assay [16] it was 85%.

As for `Cc1ccc(F)c(NC(=O)Nc2ccc(-c3cccc4[nH]nc(N)c34)cc2)c1` [Linifanib] (0.1 nM), the normalised response in assay [1] came out at 69.7%; in assay [2], 103%; in assay [3] it was 98.5%; in assay [4], 101%; in assay [5] it was 112%; in assay [17], 94.6%. The normalised response came out at 105% in [6]; 108% in [7]; 110% in [8]; 99.1% in [9]; 102% in assay [10]; 69.7% in [11]. Also, the normalised response amounted to 81.1% in assay [12]; 102% in assay [13]; 78.4% in assay [14]; 104% in [15]; 121% in assay [16].

Take `O=C1c2c(O)ccc(O)c2C(=O)c2c(NCCNCCO)ccc(NCCNCCO)c21` [Mitoxantrone] (0.1 nM): the normalised response in assay [1] stood at 93.2%; in [2], 103%; in assay [3], 104%; in [4], 112%; in [5], 104%; in [17], 77.9%. Moreover, the normalised response in assay [6] was found to be 100%; in [7], 110%; in assay [8], 102%; in [9], 102%; in assay [10], 103%; in assay [11], 115%. The normalised response in [12] was 121%; in assay [13], 100%; in [14], 93.7%; in [15] it was 104%; in assay [16], 92.3%.

As to `CNC(=O)c1cc(Oc2ccc(NC(=O)Nc3ccc(Cl)c(C(F)(F)F)c3)c(F)c2)ccn1` [Regorafenib] (1 nM), the normalised response in assay [2] was 95.1%; in assay [3], 101%; in [4], 102%; in assay [5] it was 99.9%; in assay [17] it was 67.5%; in assay [6] it was 88.6%. The normalised response in assay [7] worked out at 103%; in assay [18], 109%; in assay [8], 107%; in assay [9] it was 102%; in assay [10] it was 94.1%; in assay [11] it was 121%. For the same compound, the normalised response in assay [12] amounted to 117%; in [13], 102%; in [14], 100%; in assay [15], 97.5%; in [16], 59.1%.
